Test system: E. coli BL21-GOLD (DE3) and E. coli ΔtrpRtyrApheA
Type: cell-based, Escherichia coli
Conditions: listed as 1-Trp

Q: For N[C@@H](Cc1c[nH]c2ccccc12)C(=O)O [L-Trp, L-tryptophan], which “free 1-Trp in the fermentation medium” value is on record?
A: 142 ± 25 mg/L
